Results are given in words; binding and its absence hold for the method and conditions named. In cells and extracts the contact can be indirect. Some results given as binding are weak or reduced against the parent protein; the word gives no strength.
Columns and labels:
[1] = molecular target: BRASSINOSTEROID … 1 fused to the C-terminal fragment of split YFP (BRI1-cYFP) (Arabidopsis thaliana) (UniProt O22476); assay: split reporter; BiFC: nYFP and cYFP fusions (35S promoter) transiently co-expressed in epidermal leaf cells of N. benthamiana together with CFP-tagged RLCK and mRFP/mCherry-tagged receptor; reconstituted YFP imaged by confocal microscopy; steady state, no ligand added
[2] = molecular target: … SENSING 2 fused to the C-terminal fragment of split YFP (FLS2-cYFP) (Arabidopsis thaliana) (UniProt Q9FL28); assay: as above

Sequence: BRASSINOSTEROID … KINASE 1 fused to the N-terminal fragment of split YFP (BSK1-nYFP) (from UniProt Q944A7 1-512) (enzyme)
- binding [1]: binds
- binding [2]: binds

Source: publication PMC5383397
